Measurements as given in doi:10.1101/2023.12.07.570680.
Results are given in words; binding and its absence hold for the method and conditions named. Binding seen in cells or lysates may run through a third protein. Some binding calls cover weakened binding; strength is not graded here. Sequences can lack the tags named with a protein.

Key:
[1] = molecular target: T1, Myc-tagged CFM2 (CFM2-Myc) from CFM2:CFM2-Myc/cfm2 plants (Arabidopsis thaliana) (UniProt Q8L7C2); assay: pull-down
T1 sequence: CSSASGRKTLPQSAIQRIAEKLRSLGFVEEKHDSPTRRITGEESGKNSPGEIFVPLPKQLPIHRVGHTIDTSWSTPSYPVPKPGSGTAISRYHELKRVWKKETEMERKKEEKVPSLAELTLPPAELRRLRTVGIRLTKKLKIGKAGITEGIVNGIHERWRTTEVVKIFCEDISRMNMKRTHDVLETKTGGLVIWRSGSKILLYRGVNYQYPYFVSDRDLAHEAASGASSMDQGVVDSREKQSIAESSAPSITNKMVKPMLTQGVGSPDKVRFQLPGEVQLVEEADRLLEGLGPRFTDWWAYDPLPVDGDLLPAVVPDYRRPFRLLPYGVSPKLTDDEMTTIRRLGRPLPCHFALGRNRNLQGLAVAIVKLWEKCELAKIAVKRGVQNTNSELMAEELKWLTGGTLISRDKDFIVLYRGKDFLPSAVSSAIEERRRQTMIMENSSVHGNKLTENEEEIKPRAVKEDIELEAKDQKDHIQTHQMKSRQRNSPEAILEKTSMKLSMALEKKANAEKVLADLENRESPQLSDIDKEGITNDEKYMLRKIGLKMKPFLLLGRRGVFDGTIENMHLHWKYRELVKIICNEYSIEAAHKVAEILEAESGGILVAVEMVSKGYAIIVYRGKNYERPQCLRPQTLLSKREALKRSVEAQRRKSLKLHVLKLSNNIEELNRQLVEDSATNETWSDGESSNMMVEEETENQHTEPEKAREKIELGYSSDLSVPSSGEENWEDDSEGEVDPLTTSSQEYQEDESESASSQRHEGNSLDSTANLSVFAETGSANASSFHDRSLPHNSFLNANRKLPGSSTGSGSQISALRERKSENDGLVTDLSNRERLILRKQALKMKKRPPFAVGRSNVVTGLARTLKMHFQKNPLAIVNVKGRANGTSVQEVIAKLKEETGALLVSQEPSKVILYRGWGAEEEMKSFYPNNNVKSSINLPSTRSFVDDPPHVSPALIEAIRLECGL

[2] = molecular target: T2, Myc-tagged EMB1270 (EMB1270-Myc) from EMB1270:EMB1270-Myc/emb1270 plants (Arabidopsis thaliana) (UniProt Q5G1S8); assay: pull-down
T2 sequence: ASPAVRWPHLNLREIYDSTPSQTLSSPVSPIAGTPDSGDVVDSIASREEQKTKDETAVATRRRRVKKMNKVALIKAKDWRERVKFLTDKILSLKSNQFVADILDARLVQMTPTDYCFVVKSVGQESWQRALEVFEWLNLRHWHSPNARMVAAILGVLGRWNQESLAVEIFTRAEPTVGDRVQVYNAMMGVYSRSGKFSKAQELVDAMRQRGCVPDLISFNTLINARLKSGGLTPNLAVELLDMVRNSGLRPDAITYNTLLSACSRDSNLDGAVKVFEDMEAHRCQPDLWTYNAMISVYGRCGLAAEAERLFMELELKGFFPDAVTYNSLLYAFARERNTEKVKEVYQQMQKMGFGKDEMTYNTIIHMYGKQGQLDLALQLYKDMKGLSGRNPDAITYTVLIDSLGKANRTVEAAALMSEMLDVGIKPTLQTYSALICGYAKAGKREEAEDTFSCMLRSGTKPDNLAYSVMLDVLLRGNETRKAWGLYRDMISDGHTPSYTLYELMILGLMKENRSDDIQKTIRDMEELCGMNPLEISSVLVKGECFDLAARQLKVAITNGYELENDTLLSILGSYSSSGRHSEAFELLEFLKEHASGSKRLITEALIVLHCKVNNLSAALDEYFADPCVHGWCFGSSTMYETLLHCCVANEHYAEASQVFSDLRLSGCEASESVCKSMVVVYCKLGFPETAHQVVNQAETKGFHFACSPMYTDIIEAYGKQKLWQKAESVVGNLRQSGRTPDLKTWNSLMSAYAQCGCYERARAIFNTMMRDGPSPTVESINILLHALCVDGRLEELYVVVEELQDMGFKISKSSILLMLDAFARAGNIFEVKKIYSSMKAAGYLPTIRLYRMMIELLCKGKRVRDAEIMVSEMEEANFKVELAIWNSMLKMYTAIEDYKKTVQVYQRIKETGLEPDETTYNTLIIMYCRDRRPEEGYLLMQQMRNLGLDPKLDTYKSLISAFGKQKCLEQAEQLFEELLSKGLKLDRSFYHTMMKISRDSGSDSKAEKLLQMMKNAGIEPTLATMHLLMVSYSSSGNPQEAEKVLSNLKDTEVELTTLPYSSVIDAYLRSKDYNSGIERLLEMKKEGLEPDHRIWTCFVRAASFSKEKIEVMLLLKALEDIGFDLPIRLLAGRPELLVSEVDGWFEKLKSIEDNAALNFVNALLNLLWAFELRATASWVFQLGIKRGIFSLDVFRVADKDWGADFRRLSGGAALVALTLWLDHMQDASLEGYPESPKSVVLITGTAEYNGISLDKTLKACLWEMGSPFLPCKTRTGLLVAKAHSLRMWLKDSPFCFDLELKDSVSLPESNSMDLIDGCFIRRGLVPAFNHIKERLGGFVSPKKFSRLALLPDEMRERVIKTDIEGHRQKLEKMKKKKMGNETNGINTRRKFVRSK

binding [1]: binds
binding [2]: binds
B1: recombinant MBP-EMB1006 (protein, UniProt Q9FGR7 45-723)
chain: ATSPSSSSSSPSIFLSCFDDALPDKIQQPENSTINSEESECEEEDDEEGDDFTDPILKFFKSRTLTSESTADPARESKFSLQKNRRTSWHLAPDFADPETEIESKPEESVFVTNQQTLGVHIPFESGVAREILELAKNLKENQTLGEMLSGFERRVSDTECVEALVMMGESGFVKSCLYFYEWMSLQEPSLASPRACSVLFTLLGRERMADYILLLLSNLPDKEEFRDVRLYNAAISGLSASQRYDDAWEVYEAMDKINVYPDNVTCAILITTLRKAGRSAKEVWEIFEKMSEKGVKWSQDVFGGLVKSFCDEGLKEEALVIQTEMEKKGIRSNTIVYNTLMDAYNKSNHIEEVEGLFTEMRDKGLKPSAATYNILMDAYARRMQPDIVETLLREMEDLGLEPNVKSYTCLISAYGRTKKMSDMAADAFLRMKKVGLKPSSHSYTALIHAYSVSGWHEKAYASFEEMCKEGIKPSVETYTSVLDAFRRSGDTGKLMEIWKLMLREKIKGTRITYNTLLDGFAKQGLYIEARDVVSEFSKMGLQPSVMTYNMLMNAYARGGQDAKLPQLLKEMAALNLKPDSITYSTMIYAFVRVRDFKRAFFYHKMMVKSGQVPDPRSYEKLRAILEDKAKTKNRKDKTAILGIINSKFGRVKAKTKGKKDEFWKYKTNRTTSPGRHRS
